Assay results published in the supplement of paper PMC10849652.
This is one part of the list.

Protein sequences, listed by entry. Tags and fused reporters are not part of them. Lines headed by an entry give the natural chain unless they say otherwise; changes in a name come on top.
UniProt O75695: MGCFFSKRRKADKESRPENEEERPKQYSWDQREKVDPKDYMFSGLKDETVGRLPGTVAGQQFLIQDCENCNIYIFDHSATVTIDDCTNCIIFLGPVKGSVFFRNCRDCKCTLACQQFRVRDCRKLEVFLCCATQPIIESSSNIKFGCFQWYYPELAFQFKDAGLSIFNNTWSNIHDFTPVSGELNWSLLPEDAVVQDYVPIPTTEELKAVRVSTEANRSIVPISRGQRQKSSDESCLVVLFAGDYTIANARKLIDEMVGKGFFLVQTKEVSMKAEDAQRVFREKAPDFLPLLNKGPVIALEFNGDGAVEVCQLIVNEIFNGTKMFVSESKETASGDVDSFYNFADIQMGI
UniProt Q8IXI1, whole entry, looked up: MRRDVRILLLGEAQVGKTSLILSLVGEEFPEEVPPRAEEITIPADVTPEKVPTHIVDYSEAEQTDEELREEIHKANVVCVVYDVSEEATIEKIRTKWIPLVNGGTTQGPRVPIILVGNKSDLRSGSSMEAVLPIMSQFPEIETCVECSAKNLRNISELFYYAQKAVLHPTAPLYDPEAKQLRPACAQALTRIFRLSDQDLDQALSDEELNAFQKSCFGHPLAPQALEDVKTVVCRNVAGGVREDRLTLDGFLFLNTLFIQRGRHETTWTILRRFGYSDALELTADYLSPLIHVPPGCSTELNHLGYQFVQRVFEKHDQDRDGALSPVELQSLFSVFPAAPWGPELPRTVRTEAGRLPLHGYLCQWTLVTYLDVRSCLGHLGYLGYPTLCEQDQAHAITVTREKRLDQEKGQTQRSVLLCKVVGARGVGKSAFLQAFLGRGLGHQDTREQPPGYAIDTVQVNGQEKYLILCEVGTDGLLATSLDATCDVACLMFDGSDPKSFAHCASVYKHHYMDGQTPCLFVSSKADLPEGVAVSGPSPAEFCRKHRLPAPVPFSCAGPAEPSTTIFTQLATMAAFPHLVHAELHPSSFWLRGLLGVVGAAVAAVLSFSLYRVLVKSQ
UniProt P13489: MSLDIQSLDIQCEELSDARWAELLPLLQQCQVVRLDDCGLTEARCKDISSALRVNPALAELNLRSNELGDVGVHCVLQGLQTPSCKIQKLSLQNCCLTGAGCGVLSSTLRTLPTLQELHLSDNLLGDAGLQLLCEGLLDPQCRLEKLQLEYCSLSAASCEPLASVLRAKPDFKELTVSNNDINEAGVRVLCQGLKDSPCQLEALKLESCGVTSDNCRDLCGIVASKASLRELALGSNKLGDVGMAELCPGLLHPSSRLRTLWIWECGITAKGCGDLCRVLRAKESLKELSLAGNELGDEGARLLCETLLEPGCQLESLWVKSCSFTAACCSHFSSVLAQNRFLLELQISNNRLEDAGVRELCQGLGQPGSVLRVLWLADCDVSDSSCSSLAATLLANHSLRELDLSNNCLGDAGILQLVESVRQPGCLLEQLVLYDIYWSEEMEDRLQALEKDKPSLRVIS
UniProt Q9UBS8: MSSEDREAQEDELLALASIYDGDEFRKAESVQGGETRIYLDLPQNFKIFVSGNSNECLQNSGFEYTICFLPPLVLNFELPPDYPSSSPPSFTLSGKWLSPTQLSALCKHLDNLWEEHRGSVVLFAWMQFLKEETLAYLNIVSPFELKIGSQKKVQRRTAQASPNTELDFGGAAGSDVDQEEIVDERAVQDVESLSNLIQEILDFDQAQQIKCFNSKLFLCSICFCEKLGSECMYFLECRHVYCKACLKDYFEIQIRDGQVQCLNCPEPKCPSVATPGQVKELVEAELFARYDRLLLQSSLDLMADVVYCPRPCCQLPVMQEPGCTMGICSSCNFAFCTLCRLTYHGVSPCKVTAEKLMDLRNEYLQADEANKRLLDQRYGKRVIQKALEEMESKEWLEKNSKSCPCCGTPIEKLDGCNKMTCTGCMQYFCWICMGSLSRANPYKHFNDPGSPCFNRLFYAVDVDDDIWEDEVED
UniProt Q9H9A7: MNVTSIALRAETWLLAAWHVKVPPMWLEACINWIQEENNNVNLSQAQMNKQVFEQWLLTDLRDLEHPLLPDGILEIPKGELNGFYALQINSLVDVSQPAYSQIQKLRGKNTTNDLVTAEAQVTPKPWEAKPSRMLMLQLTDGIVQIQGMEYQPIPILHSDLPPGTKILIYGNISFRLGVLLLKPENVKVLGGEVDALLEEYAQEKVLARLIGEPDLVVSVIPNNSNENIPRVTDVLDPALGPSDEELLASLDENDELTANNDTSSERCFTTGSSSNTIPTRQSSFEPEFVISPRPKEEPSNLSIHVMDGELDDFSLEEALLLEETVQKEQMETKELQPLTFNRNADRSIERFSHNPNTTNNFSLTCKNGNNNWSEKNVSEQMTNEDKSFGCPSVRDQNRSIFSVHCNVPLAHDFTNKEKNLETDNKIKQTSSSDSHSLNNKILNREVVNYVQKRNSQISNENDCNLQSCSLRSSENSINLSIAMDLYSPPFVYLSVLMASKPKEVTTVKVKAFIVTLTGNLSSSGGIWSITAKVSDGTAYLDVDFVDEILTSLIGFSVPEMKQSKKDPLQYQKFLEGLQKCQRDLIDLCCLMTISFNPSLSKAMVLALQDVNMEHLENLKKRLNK
UniProt Q05823: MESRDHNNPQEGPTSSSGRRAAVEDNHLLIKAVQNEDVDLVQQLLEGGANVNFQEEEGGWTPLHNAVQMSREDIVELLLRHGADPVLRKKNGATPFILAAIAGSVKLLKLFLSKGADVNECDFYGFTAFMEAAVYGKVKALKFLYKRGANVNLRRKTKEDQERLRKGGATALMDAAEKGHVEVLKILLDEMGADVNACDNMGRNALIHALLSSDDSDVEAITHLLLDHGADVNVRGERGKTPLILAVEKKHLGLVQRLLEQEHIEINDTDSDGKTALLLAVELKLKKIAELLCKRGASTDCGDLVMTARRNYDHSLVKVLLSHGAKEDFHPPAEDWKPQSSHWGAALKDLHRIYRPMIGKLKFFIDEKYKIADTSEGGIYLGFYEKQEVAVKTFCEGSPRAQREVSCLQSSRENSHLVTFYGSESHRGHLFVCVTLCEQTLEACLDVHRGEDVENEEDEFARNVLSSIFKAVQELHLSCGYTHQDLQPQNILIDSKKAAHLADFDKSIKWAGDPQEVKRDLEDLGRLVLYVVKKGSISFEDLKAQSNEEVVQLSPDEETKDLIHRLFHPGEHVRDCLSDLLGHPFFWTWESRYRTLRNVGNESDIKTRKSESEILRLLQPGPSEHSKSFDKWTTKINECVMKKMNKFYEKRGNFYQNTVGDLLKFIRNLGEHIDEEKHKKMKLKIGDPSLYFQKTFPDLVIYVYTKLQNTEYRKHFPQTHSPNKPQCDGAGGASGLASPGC
UniProt Q9P0P0: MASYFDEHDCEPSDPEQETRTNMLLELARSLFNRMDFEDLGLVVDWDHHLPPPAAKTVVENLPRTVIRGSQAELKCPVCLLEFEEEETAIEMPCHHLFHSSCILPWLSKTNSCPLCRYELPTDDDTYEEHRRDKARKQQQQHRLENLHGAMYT
UniProt Q9UBF6, whole entry, looked up: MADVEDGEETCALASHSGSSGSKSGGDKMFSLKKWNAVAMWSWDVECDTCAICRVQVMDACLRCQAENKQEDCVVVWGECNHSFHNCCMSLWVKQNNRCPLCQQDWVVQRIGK
UniProt P08134, whole entry, looked up: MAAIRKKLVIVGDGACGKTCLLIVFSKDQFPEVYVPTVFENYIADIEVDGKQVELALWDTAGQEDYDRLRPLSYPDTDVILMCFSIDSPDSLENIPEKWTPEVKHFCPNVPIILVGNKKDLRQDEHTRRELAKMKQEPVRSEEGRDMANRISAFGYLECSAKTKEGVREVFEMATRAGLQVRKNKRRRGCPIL
UniProt P49247: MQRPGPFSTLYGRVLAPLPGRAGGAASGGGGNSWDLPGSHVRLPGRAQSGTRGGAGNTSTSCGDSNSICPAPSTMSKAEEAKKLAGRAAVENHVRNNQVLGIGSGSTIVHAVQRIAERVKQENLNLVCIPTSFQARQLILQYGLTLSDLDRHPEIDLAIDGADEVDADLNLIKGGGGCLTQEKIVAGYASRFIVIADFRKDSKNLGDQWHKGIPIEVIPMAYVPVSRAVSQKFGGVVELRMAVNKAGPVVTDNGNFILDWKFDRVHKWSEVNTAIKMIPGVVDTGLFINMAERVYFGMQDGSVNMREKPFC
UniProt P84095: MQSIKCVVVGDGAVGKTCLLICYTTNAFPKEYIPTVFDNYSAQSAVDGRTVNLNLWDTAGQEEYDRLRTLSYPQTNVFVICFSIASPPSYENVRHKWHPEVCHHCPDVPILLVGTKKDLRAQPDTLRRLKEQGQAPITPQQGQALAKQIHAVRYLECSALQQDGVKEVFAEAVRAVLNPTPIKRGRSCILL
UniProt Q9H6W3: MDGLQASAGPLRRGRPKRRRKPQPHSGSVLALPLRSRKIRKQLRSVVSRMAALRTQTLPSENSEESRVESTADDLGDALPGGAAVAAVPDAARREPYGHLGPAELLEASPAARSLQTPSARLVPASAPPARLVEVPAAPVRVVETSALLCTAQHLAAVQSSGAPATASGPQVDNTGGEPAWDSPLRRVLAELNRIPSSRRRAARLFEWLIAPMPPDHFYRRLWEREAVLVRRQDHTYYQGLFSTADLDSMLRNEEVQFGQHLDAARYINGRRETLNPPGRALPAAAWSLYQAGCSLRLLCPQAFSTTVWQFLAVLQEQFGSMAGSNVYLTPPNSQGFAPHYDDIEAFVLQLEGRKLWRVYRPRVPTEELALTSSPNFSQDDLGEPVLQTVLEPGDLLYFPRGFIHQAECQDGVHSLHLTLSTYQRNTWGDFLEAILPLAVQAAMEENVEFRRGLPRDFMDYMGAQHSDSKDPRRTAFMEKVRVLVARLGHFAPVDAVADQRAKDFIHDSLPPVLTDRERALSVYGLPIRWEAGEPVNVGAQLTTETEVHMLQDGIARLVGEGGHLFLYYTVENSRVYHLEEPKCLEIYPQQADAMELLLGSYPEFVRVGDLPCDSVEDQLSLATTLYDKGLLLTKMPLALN
UniProt Q99496: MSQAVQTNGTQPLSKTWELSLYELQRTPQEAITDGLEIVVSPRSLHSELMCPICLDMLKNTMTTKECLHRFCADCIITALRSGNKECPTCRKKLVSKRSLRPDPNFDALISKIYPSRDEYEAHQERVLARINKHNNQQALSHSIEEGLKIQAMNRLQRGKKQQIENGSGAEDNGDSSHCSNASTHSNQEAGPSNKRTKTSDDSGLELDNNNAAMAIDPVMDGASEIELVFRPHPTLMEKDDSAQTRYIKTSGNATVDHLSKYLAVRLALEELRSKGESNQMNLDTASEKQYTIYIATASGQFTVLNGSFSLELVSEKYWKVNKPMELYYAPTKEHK
UniProt Q5EBL4: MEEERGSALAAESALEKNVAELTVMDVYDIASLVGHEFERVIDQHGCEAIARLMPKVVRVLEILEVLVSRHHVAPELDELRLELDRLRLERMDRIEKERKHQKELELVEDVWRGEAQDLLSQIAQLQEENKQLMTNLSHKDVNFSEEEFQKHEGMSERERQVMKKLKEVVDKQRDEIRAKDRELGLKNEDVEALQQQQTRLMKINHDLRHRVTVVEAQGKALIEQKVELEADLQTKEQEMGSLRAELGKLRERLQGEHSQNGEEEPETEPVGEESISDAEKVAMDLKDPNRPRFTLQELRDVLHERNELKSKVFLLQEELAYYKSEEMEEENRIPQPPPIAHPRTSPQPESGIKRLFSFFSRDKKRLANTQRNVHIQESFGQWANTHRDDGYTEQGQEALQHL
UniProt Q8NC42: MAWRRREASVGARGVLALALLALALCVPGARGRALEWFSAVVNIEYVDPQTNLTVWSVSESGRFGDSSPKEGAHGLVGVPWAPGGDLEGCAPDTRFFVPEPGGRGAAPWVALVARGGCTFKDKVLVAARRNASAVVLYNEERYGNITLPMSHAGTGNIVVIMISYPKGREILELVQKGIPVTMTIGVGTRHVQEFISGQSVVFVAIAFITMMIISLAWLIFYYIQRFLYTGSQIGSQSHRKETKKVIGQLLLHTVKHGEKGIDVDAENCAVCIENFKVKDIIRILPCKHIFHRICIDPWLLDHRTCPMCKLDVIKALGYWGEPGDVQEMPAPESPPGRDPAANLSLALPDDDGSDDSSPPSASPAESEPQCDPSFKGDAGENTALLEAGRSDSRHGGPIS
UniProt P34096: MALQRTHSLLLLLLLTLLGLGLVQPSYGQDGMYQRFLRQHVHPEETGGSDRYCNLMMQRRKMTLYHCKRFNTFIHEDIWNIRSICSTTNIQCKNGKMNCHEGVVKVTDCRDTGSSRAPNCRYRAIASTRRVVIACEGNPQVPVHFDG
UniProt P60602: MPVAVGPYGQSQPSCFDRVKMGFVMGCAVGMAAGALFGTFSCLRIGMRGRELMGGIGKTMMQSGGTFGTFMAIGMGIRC
UniProt Q9BQY4: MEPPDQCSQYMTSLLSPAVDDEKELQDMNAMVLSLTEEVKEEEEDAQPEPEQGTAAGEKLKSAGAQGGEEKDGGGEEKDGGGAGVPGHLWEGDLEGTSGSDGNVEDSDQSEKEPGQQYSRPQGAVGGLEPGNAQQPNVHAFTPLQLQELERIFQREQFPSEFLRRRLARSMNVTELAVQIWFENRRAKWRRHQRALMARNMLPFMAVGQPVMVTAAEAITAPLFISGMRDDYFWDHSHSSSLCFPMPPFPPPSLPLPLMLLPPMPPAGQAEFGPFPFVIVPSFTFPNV

Legend:
Assay in all cases: log2 fold change, soluble protein after heating vs DMSO (PISA); higher = thermal stabilisation; K562 lysate, 10 uM; active = over 0.2 and 3.5 SD of the protein, either way, in both replicates (recomputed)
erlotinib = compound: C#Cc1cccc(Nc2ncnc3cc(OCCOC)c(OCCOC)cc23)c1 [erlotinib]
Procedure, shortened: (§1)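 Dounce homogenisation of K562 pellets in PBS pH 7.4 with 1 mM MgCl2 produced a crude extract, used at 1 mg/mL protein. Exposure to 10 μM compound lasted 30 min, and aliquots were then heated for 3 min across 48°C-58°C, pooled and brought to 0.5% NP-40 at 4°C. The supernatant after 21,000xg for 90 min was quantified by TMTpro 16plex LC-MS/MS with channel sums equalised. Duplicate values are given as log-two fold change in thermal stability relative to solvent controls.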

[1] = compound: C/C(=N\NC(=O)C1=CC(=CC=C1)S(=O)(=O)N2CCOCC2)/C3=C(C=CC(=C3)Cl)O
Procedure, shortened: as §1

[2] = compound: C1=CC(=CC=C1C2=NC3=C(N2)C=C(C=C3)C(=O)N)OC4=CC=C(C=C4)Cl
Procedure, shortened: as §1

[3] = compound: C1=CC2=C(C=CC(=C2)/C=C\3/C(=O)NC(=NCC4=CC=CS4)S3)N=C1
Procedure, shortened: as §1

[4] = compound: C1=CC2=NC=CN=C2C=C1/C=C/3\C(=O)NC(=O)S3
Procedure, shortened: as §1

[5] = compound: C1=CC=C(C=C1)C2=NC(=C(N2)C3=CC=NC=C3)C4=CC(=C(C=C4)Cl)O
Procedure, shortened: as §1

[6] = compound: C1=CC=C2C(=C1)C3=NNC4=CC=CC(=C43)C2=O
Procedure, shortened: as §1

[7] = compound: C1CCN(C1)C(=O)NC2=CC=CC(=C2)NC3=NC=C(C(=N3)NCCC4=CN=CN4)Br
Procedure, shortened: as §1

[8] = compound: C1CN(CCC1(CC2=CC=C(C=C2)Cl)N)C3=NC=NC4=C3C=CN4
Procedure, shortened: as §1

IRAK-1-4 Inhibitor I = compound: C1COCCN1CCN2C3=CC=CC=C3N=C2NC(=O)C4=CC(=CC=C4)[N+](=O)[O-] [IRAK-1-4 Inhibitor I]
Procedure, shortened: as §1

Measured: log2 fold change

RP2 (UniProt O75695)
inactive: erlotinib 0.004 | [1] 0.193 | [2] 0.025 | [3] 0.024 | [4] 0.03 | [5] -0.028 | [6] 0.097 | [7] 0.002 | [8] -0.009 | IRAK-1-4 Inhibitor I 0.022

RHOT2 (UniProt Q8IXI1)
inactive: erlotinib 0.001 | [1] -0.048 | [2] -0.004 | [3] 0.007 | [4] 0.047 | [5] 0.003 | [6] 0.004 | [7] -0.028 | [8] 0.068 | IRAK-1-4 Inhibitor I 0.051

RNH1 (UniProt P13489)
inactive: erlotinib -0.015 | [1] 0.042 | [2] 0.005 | [3] -0.031 | [4] 0.026 | [5] 0.054 | [6] -0.022 | [7] 0.024 | [8] 0 | IRAK-1-4 Inhibitor I -0.013

RNF14 (UniProt Q9UBS8)
inactive: erlotinib 0.064 | [1] 0.011 | [2] 0.048 | [3] 0.008 | [4] -0.028 | [5] 0.009 | [6] -0.02 | [7] -0.02 | [8] 0.005 | IRAK-1-4 Inhibitor I 0.005

RPL3 (UniProt P39023)
inactive: erlotinib -0.035 | [1] -0.043 | [2] -0.046 | [3] 0.033 | [4] 0 | [5] 0.016 | [6] 0.067 | [7] 0.036 | [8] -0.035 | IRAK-1-4 Inhibitor I -0.012

RMI1 (UniProt Q9H9A7)
inactive: erlotinib -0.048 | [1] -0.082 | [2] 0.082 | [3] 0.069 | [4] 0.034 | [5] 0.027 | [6] -0.116 | [7] 0.004 | [8] -0.029 | IRAK-1-4 Inhibitor I 0.023

RNF187 (UniProt Q5TA31)
inactive: erlotinib -0.007 | [1] -0.01 | [2] 0.175 | [3] -0.056 | [4] -0.005 | [5] -0.029 | [6] -0.089 | [7] -0.081 | [8] 0.101 | IRAK-1-4 Inhibitor I -0.007

RNASEL (UniProt Q05823)
inactive: erlotinib 0.103 | [1] -0.025 | [2] -0.019 | [3] -0.01 | [4] 0.099 | [5] 0.009 | [6] -0.062 | [7] -0.031 | [8] 0.005 | IRAK-1-4 Inhibitor I 0.006

RPL26 (UniProt P61254)
inactive: erlotinib -0.001 | [1] -0.089 | [2] 0 | [3] -0.003 | [4] -0.05 | [5] 0.18 | [6] 0.034 | [7] 0.066 | [8] -0.002 | IRAK-1-4 Inhibitor I -0.198

RNF181 (UniProt Q9P0P0)
inactive: erlotinib 0.031 | [1] 0.037 | [2] 0.016 | [3] 0.036 | [4] -0.001 | [5] 0.022 | [6] -0.058 | [7] 0.03 | [8] 0.099 | IRAK-1-4 Inhibitor I -0.014

RNF7 (UniProt Q9UBF6)
inactive: erlotinib 0.024 | [1] -0.039 | [2] -0.051 | [3] 0.01 | [4] 0.031 | [5] 0.005 | [6] -0.014 | [7] 0.04 | [8] -0.103 | IRAK-1-4 Inhibitor I -0.001

RPL24 (UniProt P83731)
inactive: erlotinib -0.039 | [1] -0.14 | [2] -0.003 | [3] 0 | [4] -0.009 | [5] 0.022 | [6] 0.016 | [7] 0.024 | [8] 0 | IRAK-1-4 Inhibitor I -0.009

RPL36 (UniProt Q9Y3U8)
inactive: erlotinib 0.021 | [1] -0.702 | [2] -0.034 | [3] -0.017 | [4] 0.011 | [5] 0.009 | [6] 0.033 | [7] 0.017 | [8] -0.006 | IRAK-1-4 Inhibitor I 0.022

RPL36A (UniProt P83881)
inactive: erlotinib 0.076 | [1] -0.024 | [2] 0.006 | [3] -0.05 | [4] -0.028 | [5] -0.001 | [6] -0.001 | [7] -0.001 | [8] 0.014 | IRAK-1-4 Inhibitor I -0.075

RHOC (UniProt P08134)
inactive: erlotinib -0.013 | [1] 0.025 | [2] -0.007 | [3] -0.009 | [4] 0.013 | [5] 0.01 | [6] 0.065 | [7] -0.004 | [8] -0.022 | IRAK-1-4 Inhibitor I -0.002

RPIA (UniProt P49247)
inactive: erlotinib -0.038 | [1] 0.008 | [2] -0.007 | [3] -0.005 | [4] 0.002 | [5] -0.032 | [6] -0.026 | [7] 0.017 | [8] 0.043 | IRAK-1-4 Inhibitor I 0.004

RHOG (UniProt P84095)
inactive: erlotinib -0.007 | [1] -0.004 | [2] -0.002 | [3] -0.037 | [4] -0.011 | [5] -0.001 | [6] -0.014 | [7] -0.027 | [8] 0.018 | IRAK-1-4 Inhibitor I 0.008

RIOX1 (UniProt Q9H6W3)
inactive: erlotinib 0.043 | [1] -0.429 | [2] 0.101 | [3] 0.079 | [5] -0.144 | [6] 0.145 | [7] -0.003 | [8] 0.018 | IRAK-1-4 Inhibitor I 0.007

RNF2 (UniProt Q99496)
inactive: erlotinib 0.061 | [1] -0.088 | [2] -0.031 | [3] 0.036 | [5] 0.002 | [6] -0.01 | [7] 0.048 | [8] -0.037 | IRAK-1-4 Inhibitor I -0.039

RILPL1 (UniProt Q5EBL4)
inactive: erlotinib 0.002 | [1] 0.071 | [2] -0.001 | [3] -0.017 | [4] 0.018 | [5] -0.017 | [6] -0.01 | [7] 0.022 | [8] 0.008 | IRAK-1-4 Inhibitor I 0.009

RPL29 (UniProt P47914)
inactive: erlotinib 0.002 | [1] -0.08 | [2] -0.033 | [3] -0.016 | [4] -0.023 | [5] 0.041 | [6] 0.024 | [7] 0.043 | [8] -0.009 | IRAK-1-4 Inhibitor I 0.012

RPL12 (UniProt P30050)
inactive: erlotinib 0.017 | [1] -0.01 | [2] 0.011 | [3] -0.025 | [4] -0.021 | [5] -0.004 | [6] 0.033 | [7] 0.003 | [8] -0.022 | IRAK-1-4 Inhibitor I 0.019

RNF149 (UniProt Q8NC42)
inactive: erlotinib -0.044 | [1] -0.03 | [2] 0.003 | [3] -0.046 | [4] 0.135 | [5] -0.021 | [6] -0.031 | IRAK-1-4 Inhibitor I 0.068

Reprinted at random: 2 records from the list, in no set order.
RIOX1 (UniProt Q9H6W3)
inactive: erlotinib 0.043 | [1] -0.429 | [2] 0.101 | [3] 0.079 | [5] -0.144 | [6] 0.145 | [7] -0.003 | [8] 0.018 | IRAK-1-4 Inhibitor I 0.007

RP2 (UniProt O75695)
inactive: erlotinib 0.004 | [1] 0.193 | [2] 0.025 | [3] 0.024 | [4] 0.03 | [5] -0.028 | [6] 0.097 | [7] 0.002 | [8] -0.009 | IRAK-1-4 Inhibitor I 0.022

Additional results follow:

RNASE4 (UniProt P34096)
inactive: erlotinib -0.096 | [1] -0.012 | [2] 0.06 | [3] 0.056 | [5] -0.006 | [6] -0.015 | [7] -0.174 | [8] 0.16 | IRAK-1-4 Inhibitor I 0.057

RPL30 (UniProt P62888)
inactive: erlotinib -0.003 | [1] 0 | [2] -0.032 | [3] 0.021 | [4] -0.001 | [5] 0.037 | [6] 0.053 | [7] 0.025 | [8] -0.016 | IRAK-1-4 Inhibitor I 0.023

RPL27A (UniProt P46776)
inactive: erlotinib -0.06 | [1] -0.045 | [2] 0.014 | [3] 0.003 | [4] -0.065 | [5] 0.002 | [6] -0.001 | [7] -0.014 | [8] -0.012 | IRAK-1-4 Inhibitor I 0.013

ROMO1 (UniProt P60602)
inactive: erlotinib 0.056 | [1] 0.038 | [2] 0.097 | [3] 0.166 | [5] -0.021 | [6] 0.044 | [7] -0.047 | [8] -0.047 | IRAK-1-4 Inhibitor I -0.053

RHOXF2 (UniProt Q9BQY4)
inactive: erlotinib -0.014 | [1] 0.011 | [2] 0.029 | [3] -0.017 | [4] -0.003 | [5] -0.001 | [6] -0.093 | [7] 0.021 | [8] 0.108 | IRAK-1-4 Inhibitor I 0.014
